In patent US20040071656A1, “Modulation of heat-shock-protein-based immunotherapies” (priority 2001, published 2004):
Results are given in words; binding and its absence hold for the method and conditions named. In cells and extracts the contact can be indirect. Some results given as binding are weak or reduced against the parent protein; the word gives no strength.

Sequences of proteins named here, by UniProt entry; tags and fusion partners are left off. Residues count along the entry.
UniProt P27512, residues 20-289: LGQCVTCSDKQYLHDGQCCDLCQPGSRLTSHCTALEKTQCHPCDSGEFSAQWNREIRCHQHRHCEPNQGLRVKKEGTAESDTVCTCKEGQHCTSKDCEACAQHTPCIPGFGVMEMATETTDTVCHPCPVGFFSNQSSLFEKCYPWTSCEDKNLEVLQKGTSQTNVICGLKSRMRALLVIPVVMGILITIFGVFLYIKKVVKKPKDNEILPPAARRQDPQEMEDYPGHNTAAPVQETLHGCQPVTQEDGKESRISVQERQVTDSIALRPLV
UniProt P0DMV8, residues 2-641: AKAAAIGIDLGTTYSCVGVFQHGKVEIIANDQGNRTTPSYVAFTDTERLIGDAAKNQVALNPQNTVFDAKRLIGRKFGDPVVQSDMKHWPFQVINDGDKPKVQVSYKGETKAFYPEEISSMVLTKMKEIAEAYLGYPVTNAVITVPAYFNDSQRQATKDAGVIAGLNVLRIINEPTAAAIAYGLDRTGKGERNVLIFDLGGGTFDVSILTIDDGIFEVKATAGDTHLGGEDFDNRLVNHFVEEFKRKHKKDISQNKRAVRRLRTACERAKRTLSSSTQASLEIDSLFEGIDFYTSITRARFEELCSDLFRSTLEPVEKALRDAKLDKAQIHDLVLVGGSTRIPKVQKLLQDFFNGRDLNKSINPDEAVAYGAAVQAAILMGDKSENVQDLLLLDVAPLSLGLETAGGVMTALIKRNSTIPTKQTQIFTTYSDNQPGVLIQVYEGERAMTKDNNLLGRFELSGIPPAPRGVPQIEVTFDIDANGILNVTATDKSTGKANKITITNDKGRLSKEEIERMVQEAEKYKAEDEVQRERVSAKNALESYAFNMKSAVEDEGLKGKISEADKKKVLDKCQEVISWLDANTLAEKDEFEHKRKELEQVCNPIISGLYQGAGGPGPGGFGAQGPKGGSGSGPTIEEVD

Biological target: Endogenous CD40 of LPS-stimulated murine ANA1 macrophage cells (murine) (UniProt P27512)
Assay: Ni-NTA-agarose pull-down from ANA1 cell extract (Hsp70 preincubated with peptide C, with or without ADP), anti-CD40 immunoblot

binding: binds
Substance: Recombinant human His6-tagged Hsp70 (from UniProt P0DMV8 2-641)
